These results are taken from patent CN115536746A.

Results are given in words; binding and its absence hold for the method and conditions named. Some binding calls cover weakened binding; strength is not graded here.

For the experiment, the target named is T1, 猴源CRTAM蛋白全长 on CHO-K1-cCRTAM cells (猴源 (食蟹猴, cynomolgus monkey)).
T1 sequence: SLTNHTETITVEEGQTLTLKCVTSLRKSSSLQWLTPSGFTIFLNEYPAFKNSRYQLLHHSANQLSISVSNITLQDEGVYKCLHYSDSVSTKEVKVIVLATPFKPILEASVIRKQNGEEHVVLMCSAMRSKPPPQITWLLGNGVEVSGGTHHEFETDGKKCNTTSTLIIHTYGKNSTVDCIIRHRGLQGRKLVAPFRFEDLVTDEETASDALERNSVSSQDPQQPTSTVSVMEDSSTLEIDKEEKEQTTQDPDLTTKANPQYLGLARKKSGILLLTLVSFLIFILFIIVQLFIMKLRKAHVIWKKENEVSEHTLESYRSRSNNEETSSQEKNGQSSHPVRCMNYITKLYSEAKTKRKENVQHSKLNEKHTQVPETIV
Kind of experiment: flow cytometry on CHO-K1-cCRTAM cells.

B1: HuC94-31 (antibody, V domains shown)
VH: EVQLLESGGGLVQPGGSLRLSCAASGFTFSTSAMSWVRQAPGKGLEWVATISSGGDYTYYSDNVKGRFTISRDNSKSTLYLQMNSLRAEDTAVYYCTLGYDEADYWGQGSLLTVSS
VL: DIQMTQSPSSLSASVGDRVTITCRASQDISNYLNWYQQKPGKAPKLLIYYTSRLHSGVPSRFSGSGSGTDYTFTISSLQPEDIATYYCQQGDTFPWTFGGGTKLEIK
B1: the binding result is “binds”.
